How the values were obtained:
[1] = tested on: HIV RNA Transcript/calf thymus gDNA; test: Selective extraction of RNA from an RNA/DNA mixture (Qubit assay); conditions: compound 1.5 mM
[2] = tested on: MAQC RNA/calf thymus gDNA; test: as above; design: species or system human; conditions: compound 1.5 mM
[3] = tested on: ORN with 27 bases in mixture with an ODN with 27 bases; test: Selective functionalisation, capture, cleaving and elution of an ORN from an ORN/ODN mixture (HPLC 260 nm)
Experimental: We have a 27-mer ODN (Eurogentec ref. 21438-DNA batch #2177673, Sequence: 5′-AAC-CGC-AGT-GAC-ACC-CTC-ATC-ATT-ACA-3′) in 650 μM solution in water, and a 27-mer ORN (Eurogentec ref. 21437-RNA batch #2177672, Sequence: 5′-AAC-CGC-AGU-GAC-ACC-CUC-AUC-AUU-ACA-3′) in 952 μM solution in water. 15.4 μL of ODN and 17.5 μL of ORN are mixed and topped up with 67.1 μL of ultrapure water.
80 μL of the mixture (8 nmoles) are evaporated until dry and taken up in: 10 μL of water, 5 μL of isatoic anhydride Biot PEG4(SS)IA Me (24); […]), in 480 mM DMF solution, and 5 μL of Triethyl ammonium acetate buffer in 1 M solution in water. The medium is placed in the oven at 65° C. for one hour.
The medium is then subjected to a triple precipitation with lithium perchlorate LiClO4 and with acetone, in order to free it from the residual BiotPEG4 (SS) IA Me: 18 μL of LiClO4 in 3M solution in water and 262 μL of water are added to the medium. After vortex stirring, 900 μL of acetone are added, then the medium is agitated once again and centrifuged (5 minutes at 13,000 rpm at ambient temperature). The supernatant is then removed carefully and the same method is repeated twice more with 18 μL of LiClO4 and 282 μL of water. Finally, the medium is washed with 900 μL of acetone before stirring and centrifuging. The greater part of the supernatant is removed carefully before drying in the rotary evaporator.
The functionalisation and precipitation steps described above are repeated, starting from the dry residue taken up in 10 μL of water.
The ORN/ODN mixture is then taken up in 33 μL of water and 5 μL of the solution are then injected into HPLC (Injection 2, HPLC conditions No. 4, FIG. 15).
The following are successively introduced into a 250 μL tube: • 250 μg (i.e. 50 μL of solution) of Merck MagPrep-25 streptavidin-coated magnetic particles (Merck, Darmstadt, Germany), washed twice in advance with 200 μL of PBS buffer (0.01 M PO4^−, 0.0027 M KCl, 0.137 M NaCl, pH=7.4 at 25° C., Sigma-Aldrich ref., Saint Louis, USA). • 10 μL of PBS and 4.0 μL of precipitated ORN/ODN mixture which has reacted with the compound Biot PEG4 (SS) IA Me (24). • The medium is left under gentle stirring at ambient temperature for 10 minutes.
After magnetisation of the particles, the supernatant is removed carefully and a fraction is injected into HPLC (Injection 3, HPLC conditions No. 4, FIG. 15). The particles are then washed twice with 200 μL of PBS. 20 μL of dithiothreitol (DTT) in 100 mM solution in PBS are then added to the medium, which is left under gentle stirring at 40° C. for one hour.
After magnetisation, the supernatant is injected into HPLC (Injection 4, HPLC conditions No. 4, FIG. 15). […]

[4] = tested on: Easy MAG eluate from total blood; test: Selective extraction of RNA from an RNA/DNA mixture (Qubit assay); conditions: compound 1.5 mM
[5] = tested on: in vitro RNA transcripts (IVT); test: Functionalisation of in vitro RNA transcripts, Cy3 and RNA assay, DoL (Degree of Labelling); format: biochemical, human
Experimental: The in vitro transcripts are generated in the same way as described in example 8. In this example, we have used four concentrations of functionalisation molecule Cy3 IA Me (13) in order to determine the most appropriate concentration for detection of the most sensitive functionalised IVTs.
6 μg of in vitro transcripts are taken up in a total volume of 20 μL of a 10 mM solution of Zn(OAc)2 pH 6.5. The solution is incubated for 15 min at 70° C. in order to partially fragment the RNA until a majority of fragments are obtained which are of a size between 25 and 200 bases. After this incubation, the solution is immediately put into ice.
11 μL of the transcript solution is mixed with 4 μL of a 500 mM solution of NaHCO3 pH 8-8.5, and with 5 μL of a 120, 240, 360 or 480 mM solution of Cy3 IA Me (13) in DMSO, to obtain 30, 60, 90 or 120 mM solutions of functionalisation reagent, respectively. These solutions are incubated at 65° C. for one hour.
The excess of functionalisation reagent as well as that of the different salts are eliminated by isopropanol precipitation then by acetone precipitation. To do this, 6 μL of 3M sodium acetate (i.e. 30% by volume) and 14 μL of isopropanol (i.e. 70% by volume) are added to the functionalisation solution. Vortex stirring is performed and centrifuging is performed for 30 mins at 14,000 rpm (20,800 g) at 4° C. The supernatant is eliminated and then the pellet is rinsed with 50 μL of 70% ethanol. Centrifuging is carried out again for 15 mins at 14,000 rpm (20,800 g) at 4° C., and the supernatant is eliminated.
280 μL of water, 18 μL of 3M LiClO4 and 900 μL of acetone are added to the pellet. Vortex stirring is performed, centrifuging is performed and the supernatant is eliminated. Next, 280 μL of water, 18 μL of 3M LiClO4 and 900 μL of acetone are added to the pellet. Vortex stirring is performed, centrifuging is performed and the supernatant is eliminated. The pellet is rinsed with 50 μL of 70% ethanol and then centrifuging is carried out for 15 mins at 14,000 rpm (20,800 g) at 4° C. The supernatant is eliminated, and the pellet is dried under vacuum with the rotary evaporator before the pellet is taken up in 20 μL of water (i.e. [in vitro transcripts]theoretical=[…]).
In order to determine the quantity of functionalised in vitro transcripts recovered after these different treatments, 1.2 μl of each end solution are assayed by UV spectrophotometry at 260 nm (Nanodrop 100, Thermo Scientific Waltham, USA). An assay is also carried out at 550 nm in order to learn the Cy3 functionalisation rate of the in vitro transcripts (% of Cy3 molecules per 100 nucleosides). This value is also known under the name DoL (Degree of Labelling) and is calculated with the following equation: DoL (in %)=100×(340×[Cy3])/(1000×[RNA]). The details of this equation are described in the protocol for the Cy3-ULS kit ref. EA-023 marketed by Kreatech (Amsterdam, The Netherlands). Table 4 below describes the DoL values following the functionalisation of IVT with different concentrations of molecule Cy3 IA Me (13).

[6] = 120 mM compound in the solution

| Compound | Selectivity S [1] | DNA/RNA ratio (final) ([1]; initial DNA/RNA 80/20) | Selectivity S [2] | DNA/RNA ratio (final) ([2]; initial DNA/RNA 89/11) | nucleoside adducts and nucleotide anthranilate SH, level in the total mixture ([3]; after complete hydrolysis by Nuclease P1 and alkaline phosphatase) | specific capture yield ([3]; injection 3, streptavidin-coated magnetic particles) | ORN freed from the support, yield relative to the quantity involved at the start ([3]; injection 4, DTT 100 mM, 40° C. 1 h) | yield from the functionalisation/capture/elution process ([3]; optimised conditions) | Selectivity S [4] | DNA/RNA ratio (final) ([4]; initial DNA/RNA 88/12) | Nanodrop IVT assay at 260 nm ([5]; 30 mM compound in the solution) | Cy3 assay at 550 nm ([5]; 30 mM compound in the solution, 65° C. 1 h, NaHCO3 pH 8-8.5) | Cy3 assay at 550 nm ([5]; 60 mM compound in the solution) | Nanodrop IVT assay at 260 nm ([5]; 60 mM compound in the solution) | Cy3 assay at 550 nm ([5]; 90 mM compound in the solution) | Nanodrop IVT assay at 260 nm ([5]; 90 mM compound in the solution) | Cy3 assay at 550 nm [5, 6] | Nanodrop IVT assay at 260 nm [5, 6] |
| --- | --- | --- | --- | --- | --- | --- | --- | --- | --- | --- | --- | --- | --- | --- | --- | --- | --- | --- |
| Cn1c(=O)oc(=O)c2cc(NC(=O)CCSSCCNC(=O)CCOCCOCCOCCOCCNC(=O)CCCCC3SCC4NC(=O)NC43)ccc21 (stereo not drawn) [5Biot PEG4 SS IA Me 24] | 26 | 9/91 | 50 | 14/86 | 5% | 37% | 18% | around 50% | 54 | 12/88 | – | – | – | – | – | – | – | – |
| CCN1/C(=C\C=C\C2=[N+](CCCCCC(=O)Nc3ccc4c(c3)c(=O)oc(=O)n4C)c3ccc(S(=O)(=O)[O-])cc3C2(C)C)C(C)(C)c2cc(S(=O)(=O)[O-])ccc21.[K+] [Cy3 IA Me 13, 1-methyl 5-Cy3-isatoic anhydride] | – | – | – | – | – | – | – | – | – | – | 271 ng/µL | 6.7 pmol/µL | 13.1 pmol/µL | 255 ng/µL | 12.3 pmol/µL | 207 ng/µL | 15.2 pmol/µL | 192 ng/µL |
